# Measured values from PMC12548414.
# In all, about 1,600 compounds went through this assay and about 20 (1%) showed an effect of 50% or more. The list shows a part of the results.
# System: T1, E. coli pLC1021 (luc-trpAt trans-translation reporter)
# T1 construct: pLC1021 luc-trpAt reporter strain
# Parameters: species or system Escherichia coli pLC1021; luc-trpAt non-stop luciferase reporter; luminescence rises when trans-translation is inhibited; normalized to KKL-35 and DMSO
# Details: reporter signal, KKL-35 = 100%; rise means trans-translation inhibition; 2 h, 20 µM
# Procedure: The luciferase screen was performed as previously described ([16]). […] 48 µL of cells was transferred to white 96-well plates, and 2 µL DMSO or 20 µM compound, or 20 µM KKL-35 was added. Plates were sealed with adhesive film, vortexed gently to mix, and incubated at room temperature for 2 h. 50 µL Bright-Glo reagent (Promega, Madison, WI) was added to each well, and the plates were sealed with adhesive film, vortexed vigorously, and incubated for an additional 10 min at room temperature. Luminescence was measured at 560 nm using a SpectraMax i3 microplate reader and readings for each plate were normalized to the average of three KKL-35-treated wells (positive control) and three DMSO-treated wells (negative control) within the plate to correct for plate-to-plate and day-to-day variations. Results from at least two biological repeats were averaged, and GraphPad Prism was used to plot the data. We screened a library of 1,601 anti-tubercular small molecules for their ability to inhibit trans-translation using a luciferase reporter in Escherichia coli. In this luc-trpAt reporter, the firefly luciferase gene has a trpA transcriptional terminator before the stop codon, such that luciferase is translated from a non-stop mRNA ([16]). When trans-translation is active, the luciferase will be tagged and degraded, but when trans-translation is inhibited, active luciferase will accumulate, resulting in a luminescent signal when luciferin is added. Luciferase activity was measured after growth in the presence of compounds from the library at 20 µM, using the known trans-translation inhibitor KKL-35 as a positive control (Fig. 1A) ([16], [17]). Compounds with activity one standard deviation above the median were scored as positive (Fig. S1 and Table S1).
row,SMILES,% activation [%]
1,O=C(Nc1nc2c(s1)CCCC2)c1ccc(Br)s1 [KKL-0575],0
2,CCCC(=O)N1CCN(c2ccc(NC(=O)c3ccc([N+](=O)[O-])o3)cc2)CC1 [KKL-1656],0
3,Oc1cccc2ccc(/C=C/c3cccc(F)c3)nc12 [KKL-1464],18
4,CC(C)=CCN1CCN(CCC2=C(C)CCCC2(C)C)CC1CCO (centres unmarked) [KKL-1079],4
5,COc1ccccc1C(=O)NNC(=S)NC(=O)c1cccs1 [KKL-0062],45
6,COC(=O)c1cccc(NC(=S)NC[C@H]2C[C@@H]3CCN2C[C@@H]3c2cc(-c3ccc4ccccc4c3)nn2C)c1 [KKL-1596],71
7,O=[N+]([O-])c1cc(S(=O)(=O)C(F)(F)F)ccc1Sc1nc2ccccc2s1 [KKL-0960],0
8,O=C(CSc1nnc(CNc2cccc(Cl)c2)o1)OC1CCCCC1 [KKL-1642],3
9,N=c1c2c(-c3ccccc3)c(-c3ccccc3)n(Cc3ccco3)c2ncn1Cc1ccco1 [KKL-1381],0
10,CN(C)c1ccc(Nc2nc(-c3ccc(O)cc3O)cs2)cc1 [KKL-1352],0
11,O=C(Oc1c(Cl)cc(Cl)c2cccnc12)c1ccc([N+](=O)[O-])cc1 [KKL-0754],96
12,Cc1cc(NC(=O)C2CCCCC2)n(-c2nc3ccccc3[nH]2)n1 [KKL-0795],9
13,O=c1c2ccccc2[nH]c(=S)n1CCCN1CCN(c2cccc(Cl)c2)CC1 [KKL-1390],0
14,OC(CN1CCNCC1)Cn1c2ccc(Cl)cc2c2cc(Cl)ccc21 (centres unmarked) [KKL-0542],0
15,COc1cc(CNCc2ccccn2)ccc1OCc1ccc(Cl)c(Cl)c1 [KKL-0354],0
16,CSc1ccc(-c2nnc(NC(=O)c3ccc(Cl)s3)o2)cc1 [KKL-1706],50
17,CCCOc1ccc(Nc2cc(C)nc3ccc(Cl)cc23)cc1 [KKL-0742],0
18,Cc1cc(C)cc(OCCCON2C(=N)N=C(N)NC2(C)C)c1 [KKL-1675],13
19,COc1ccc(NC(=O)CC23CC4CC(CC(C4)C2)C3)cc1Cl [KKL-0753],3
20,CN(CCC12CC3CC(CC(C3)C1)C2)Cc1nc(COc2ccccc2)no1 [KKL-1178],0
21,O=C(NC[C@H]1C[C@@H]2CCN1C[C@@H]2CN1CCC(Cc2ccccc2)CC1)c1ccc(C(F)(F)F)cc1 [KKL-0307],0
22,O=C(CCNc1ccc(Cl)c(C(F)(F)F)c1)c1cccs1 [KKL-0437],0
23,O=C(NCc1ccc(Oc2ccccc2)cc1)c1c(C(F)(F)F)nc2ccccn12 [KKL-1852],3

# Among those listed so far, these contain a furan ring, fused or not:
row,SMILES,% activation [%]
2,CCCC(=O)N1CCN(c2ccc(NC(=O)c3ccc([N+](=O)[O-])o3)cc2)CC1 [KKL-1656],0
9,N=c1c2c(-c3ccccc3)c(-c3ccccc3)n(Cc3ccco3)c2ncn1Cc1ccco1 [KKL-1381],0
